Test results taken from the supplement of paper PMC9744312.
Structures can show the parent of a compound that is named as a salt. The list shows a part of the results. The data scatter; read single values as rough.

test system: Peyronie's disease tunica albuginea primary fibroblasts; experiment: inhibition of TGF-beta1-induced alpha-SMA expression (myofibroblast transformation), relative to TGF-beta1-only and untreated controls; higher = stronger inhibition of myofibroblast transformation; settings: 10 µM; TGF-beta1 10 ng/mL; 72 h

Compound | inhibition of TGF-beta1-induced alpha-SMA expression
Nc1ccn([C@@H]2O[C@H](CO)[C@@H](O)[C@@H]2O)c(=O)n1 [Cytarabine] | 2.04%
Nc1ccn([C@@H]2O[C@H](CO)[C@@H](O)[C@@H]2O)c(=O)n1 [Cytarabine hydrochloride] | 8.42%
O=c1[nH]c(=O)c2ccccc2o1 [Carsalam] | -2.76%
Cc1[nH]c2ccccc2c1CCNCc1ccc(/C=C/C(=O)NO)cc1 [Panobinostat (LBH589)] | 95.9%
COc1ccnc(C[S+]([O-])c2nc3cc(OC(F)F)ccc3[nH]2)c1OC (centres undefined) [Pantoprazole sodium] | 10.3%
COc1ccnc(C[S+]([O-])c2nc3cc(OC(F)F)ccc3[nH]2)c1OC (centres undefined) [Pantoprazole] | 24%
CCOc1ccccc1OC(c1ccccc1)C1CNCCO1 (centres undefined) [Reboxetine mesylate] | 15.5%
O=c1[nH]cnc2c1ncn2[C@@H]1O[C@H](CO)[C@@H](O)[C@H]1O [Inosine] | -30.6%
COc1cc([C@@H]2c3cc4c(cc3[C@@H](O[C@@H]3O[C@@H]5CO[C@@H](c6cccs6)O[C@H]5[C@H](O)[C@H]3O)[C@H]3COC(=O)[C@H]23)OCO4)cc(OC)c1O [Teniposide] | 44%
CCOc1ccc(C[C@H]2NC(=O)CCSSC[C@@H](C(=O)N3CCC[C@H]3C(=O)N[C@@H](CCCN)C(=O)NCC(N)=O)NC(=O)[C@H](CC(N)=O)NC(=O)[C@H]([C@@H](C)O)NC(=O)[C@H]([C@@H](C)CC)NC2=O)cc1 [Atosiban Acetate] | 1.58%
O=c1ccc2ccccc2o1 [Coumarin] | -11.3%
CN(C)CCCN1c2ccccc2Sc2ccc(Cl)cc21 [Chlorpromazine HCl] | 46%
C[C@@H](O)[C@H]1C(=O)N2C(C(=O)[O-])=C(SC3Cn4cnc[n+]4C3)[C@H](C)[C@H]12 (some centres undefined) [Biapenem] | 26.8%
Cc1nc(-c2ccc(OCC(C)C)c(C#N)c2)sc1C(=O)O [Febuxostat] | 50.8%
CC(=O)[C@H]1CC[C@H]2[C@@H]3CC=C4C[C@@H](O)CC[C@]4(C)[C@H]3CC[C@]12C [Pregnenolone] | 17.4%
COc1ccc(CC2c3cc(OC)c(OC)cc3CC[N+]2(C)CCC(=O)OCCCCCOC(=O)CC[N+]2(C)CCc3cc(OC)c(OC)cc3C2Cc2ccc(OC)c(OC)c2)cc1OC (centres undefined) [Atracurium Besylate] | 38.7%
CN(C)c1ccc(C(=C2C=CC(=[N+](C)C)C=C2)c2ccc(N(C)C)cc2)cc1 [Crystal Violet] | > 100%
CC(C(=O)O)c1ccc2c(c1)CC(=O)c1ccccc1S2 (centres undefined) [Zaltoprofen] | 12.4%
CCN(CCO)CCCC(C)Nc1ccnc2cc(Cl)ccc12 (centres undefined) [Hydroxychloroquine Sulfate] | 54.8%

Quoted at random: two entries already listed, in no set order.
Compound | inhibition of TGF-beta1-induced alpha-SMA expression
CCOc1ccc(C[C@H]2NC(=O)CCSSC[C@@H](C(=O)N3CCC[C@H]3C(=O)N[C@@H](CCCN)C(=O)NCC(N)=O)NC(=O)[C@H](CC(N)=O)NC(=O)[C@H]([C@@H](C)O)NC(=O)[C@H]([C@@H](C)CC)NC2=O)cc1 [Atosiban Acetate] | 1.58%
O=c1ccc2ccccc2o1 [Coumarin] | -11.3%
